Data as given in publication PMC12044007.
For at least one entry, the source does not settle the construct or the ends of the probe. For part of these data: The comparison behind a weaker result is the experiment's own reference, which may not be listed here. For part of these data: At least one verdict rests on a figure or table, not on a statement of the authors. For part of these data: Protein sequences can lack the tags named with them. For part of these data: At least one result comes from cells or an extract, where the contact may be indirect.

Chains of the proteins cited; added tags and fusions are not shown. Lines headed by an entry give the natural chain unless they say otherwise; changes in a name come on top.
UniProt P17535: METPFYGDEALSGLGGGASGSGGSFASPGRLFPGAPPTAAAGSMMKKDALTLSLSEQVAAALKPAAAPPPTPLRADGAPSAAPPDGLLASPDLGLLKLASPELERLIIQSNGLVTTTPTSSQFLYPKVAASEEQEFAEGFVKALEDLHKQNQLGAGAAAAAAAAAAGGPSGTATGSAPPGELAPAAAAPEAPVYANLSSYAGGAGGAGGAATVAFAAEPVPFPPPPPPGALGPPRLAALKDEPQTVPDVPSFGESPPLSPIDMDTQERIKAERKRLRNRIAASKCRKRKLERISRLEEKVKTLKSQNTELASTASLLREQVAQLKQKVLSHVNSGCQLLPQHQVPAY
UniProt Q15723: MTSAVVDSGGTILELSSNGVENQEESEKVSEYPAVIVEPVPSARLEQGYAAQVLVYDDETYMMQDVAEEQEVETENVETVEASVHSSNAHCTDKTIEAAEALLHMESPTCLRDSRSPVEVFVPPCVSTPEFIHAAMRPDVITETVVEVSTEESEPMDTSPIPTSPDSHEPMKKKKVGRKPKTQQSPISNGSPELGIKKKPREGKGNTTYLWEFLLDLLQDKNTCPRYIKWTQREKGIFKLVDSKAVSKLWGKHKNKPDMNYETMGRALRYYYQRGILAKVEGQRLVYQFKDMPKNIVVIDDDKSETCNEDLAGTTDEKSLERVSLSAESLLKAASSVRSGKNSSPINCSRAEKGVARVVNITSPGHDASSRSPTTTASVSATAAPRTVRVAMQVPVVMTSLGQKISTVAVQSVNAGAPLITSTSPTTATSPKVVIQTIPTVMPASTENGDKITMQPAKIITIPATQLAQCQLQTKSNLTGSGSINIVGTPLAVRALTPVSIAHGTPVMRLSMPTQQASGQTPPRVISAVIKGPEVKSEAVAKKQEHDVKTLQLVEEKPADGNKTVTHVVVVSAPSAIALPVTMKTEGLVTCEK

Columns and labels:
JunB = molecular target: T1, JunB (UniProt P17275); experiment: EMSA; settings: 135 or 270 ng protein, EMSA: 10X binding buffer (composition not given), glycerol, poly(dI-dC), 5 nM labeled oligo, 135 or 270 ng recombinant protein or 2.5-5 ug nuclear lysate, commercial protein, label: 5' IRDye700
T1 sequence (looked up, limits assumed): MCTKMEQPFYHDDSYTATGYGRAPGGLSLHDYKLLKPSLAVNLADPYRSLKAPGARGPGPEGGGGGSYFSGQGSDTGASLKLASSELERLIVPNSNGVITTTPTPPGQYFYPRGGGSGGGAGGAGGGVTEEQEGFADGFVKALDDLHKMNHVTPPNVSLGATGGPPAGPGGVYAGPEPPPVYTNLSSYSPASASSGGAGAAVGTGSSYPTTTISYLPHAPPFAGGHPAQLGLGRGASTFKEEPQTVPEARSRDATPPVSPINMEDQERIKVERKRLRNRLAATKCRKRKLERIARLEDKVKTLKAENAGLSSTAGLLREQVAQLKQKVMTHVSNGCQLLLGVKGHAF

JunD = JunD (UniProt P17535); experiment: EMSA; settings: 135 or 270 ng protein, EMSA: 10X binding buffer (composition not given), glycerol, poly(dI-dC), 5 nM labeled oligo, 135 or 270 ng recombinant protein or 2.5-5 ug nuclear lysate, commercial protein, label: 5' IRDye700
[1] = molecular target: JunB in TPA-stimulated HeLa nuclear extract (human (HeLa)) (UniProt P17275); experiment: EMSA supershift; settings: JunB antibody; EMSA: 10X binding buffer (composition not given), glycerol, poly(dI-dC), 5 nM labeled oligo, 135 or 270 ng recombinant protein or 2.5-5 ug nuclear lysate; protein in an extract; label: 5' IRDye700
[2] = molecular target: JunD in TPA-stimulated HeLa nuclear extract (human (HeLa)) (UniProt P17535); experiment: EMSA supershift; settings: JunD antibody; EMSA: 10X binding buffer (composition not given), glycerol, poly(dI-dC), 5 nM labeled oligo, 135 or 270 ng recombinant protein or 2.5-5 ug nuclear lysate; protein in an extract; label: 5' IRDye700
ELF2 = experiment: EMSA; settings: 135 or 270 ng protein; EMSA: 10X binding buffer (composition not given), glycerol, poly(dI-dC), 5 nM labeled oligo, 135 or 270 ng recombinant protein or 2.5-5 ug nuclear lysate; commercial protein; label: 5' IRDye700
[3] = molecular target: ELF2 in PANC-1 nuclear extract (human (PANC-1)) (UniProt Q15723); experiment: EMSA supershift; settings: ELF2 antibody, band lost; EMSA: 10X binding buffer (composition not given), glycerol, poly(dI-dC), 5 nM labeled oligo, 135 or 270 ng recombinant protein or 2.5-5 ug nuclear lysate; protein in an extract; label: 5' IRDye700

**Q.** Does “AGTCACCGGTGACTCAGGCCGGCCAGAGTTT (double strand) [rs13303160 ALT (A, protective)]” bind (JunB; also supershift)?
**A.** Result: binds

**Q.** Does “AGTCACCGGTGACTCAGGCCGGCCAGAGTTT (double strand) [rs13303160 ALT (A, protective)]” bind (JunD; also supershift)?
**A.** Result: binds

**Q.** Does “AGTCACCGGTGACTCAGGCCGGCCAGAGTTT (double strand) [rs13303160 ALT (A, protective)]” bind [1]?
**A.** Result: binds

**Q.** Does “AGTCACCGGTGACTCAGGCCGGCCAGAGTTT (double strand) [rs13303160 ALT (A, protective)]” bind [2]?
**A.** Result: binds

**Q.** What does the source list for “AGTCACCGGTGACTCGGGCCGGCCAGAGTTT (double strand) [rs13303160 REF (G, risk)]”?
**A.** binding result (JunB): binds more weakly; binding result (JunD): binds more weakly

**Q.** Which results are given for “CTTCCCAGAGGAGGAAGATGGCGGGGCCTGG (double strand) [rs13303327 ALT (A, protective)]”?
**A.** binding result (ELF2): binds; binding result [3]: binds

**Q.** Does “CTTCCCAGAGGAGGAGGATGGCGGGGCCTGG (double strand) [rs13303327 REF (G, risk)]” bind (ELF2)?
**A.** Result: binds more weakly
